PubChem BioAssay AID1259424 | University of Nebraska Medical Center – 2018

Aim: 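Rank knockdowns across the genome by resemblance to the KSR1 depletion profile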 (primary screen)
System: human HCT116 colon cancer cells
Reagent: siRNA pool against human genes, 50 nM
Read-out: 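Six signature mRNAs by branched-DNA multiplex assay, scaled to two housekeeping genes and non-targeting median, log2; matched to mean KSR1 knockdown profile by Pearson correlation and euclidean distance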
Reading the numbers: mean correlation with KSR1 profile: higher = expression change more like KSR1 knockdown
Here is one part, drawn at random, of about 14,000 deposited reagents. 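Higher correlation or smaller distance means closer resemblance to KSR1 loss; control wells, including KSR1 knockdowns, recur on many plates.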 Not all columns of the deposit are shown. No sequences are given here. Not given: the time to read-out.

After knock-down of SUPT5H the results were mean correlation with KSR1 profile -0.00953. Against SYNM the deposit lists mean correlation with KSR1 profile -0.0187. Depletion of GALNT17 resulted in: mean correlation with KSR1 profile -0.168. GCC1 scored mean correlation with KSR1 profile 0.00825. For SLC16A3 the deposit lists mean correlation with KSR1 profile -0.163. With knock-down of SDSL, the screen gave mean correlation with KSR1 profile 0.199.

P2RY14 showed mean correlation with KSR1 profile 0.804. Silencing of FAT2 came out at: mean correlation with KSR1 profile 0.0848. PTGIR showed mean correlation with KSR1 profile 0.527. Against DDX23, the values are mean correlation with KSR1 profile -0.334. With knock-down of CHTF18, the screen gave mean correlation with KSR1 profile -0.281. After knock-down of RFC3, the record shows mean correlation with KSR1 profile -0.232.

2 of these entries, set out differently.
gene,mean correlation with KSR1 profile
P2RY14,0.804
FAT2,0.0848
